Laboratory results taken from US7728128B2, “Dibenzo[c,h][1,5]naphthyridines and their use as DNA probes” (Institut National de la Sante et de la Recherche Medicate …, priority 2006, dated 2010).
At least one structure is not confirmed: it was looked up by name or label, or the drawing left a doubt.

What was measured:
plasmid DNA [1] = assay: absorption of free molecules before and after addition of plasmid DNA; assay type: physicochemical; set-up: unit not given here; conditions: for Absorption maxima free dye: free molecule, before addition of plasmid DNA
Procedure: (§1) Plasmid dsDNA was purified using a Qiagen Maxiprep kit and used in the supercoiled form for absorption and fluorescence studies. E. coli total RNA was bought from Ambion, dA/dT and dG/dC homopolymers were purchased from Amersham Biosciences. Calf thymus (CT) high-molecular weight DNA and Hoechst 33258 were obtained from Sigma-Aldrich. Ethidium bromide was purchased from Amresco.
Spectrometry and fluorimetry were performed using a SpectraMax384 (Molecular Devices) and a Luminescence Spectrometer LS50B (Perkin Elmer). Fluorescence emission of compound I in complex with DNA and RNA was measured in 50 mM Na phosphate buffer, pH 7.2 at room temperature. Before use, total E. coli RNA was heated to 100° C. for 1 min and immediately transferred on ice for 5 min before mixing with compound I solution. All measurements were carried out at room temperature (20-23° C.) in solutions protected from light and incubated for ˜10-15 min after dilution. The units of b/dye and bp/dye are defined as moles of RNA bases or DNA base pairs per mole of dye. Quantum yield was measured using quinine sulphate as standard as described in (Iupac Commission on Photochemistry, EPA Newsletter of November 1986, 21-29) using FLUOROMAX-3 Spex Spectrofluorometer (HORIBA) and UVIKON XL Spectrophotometer (SECOMAM).
Although compound I also stains mitotic chromosomes (FIG. 1D), theoretically it was possible that it binds specifically to DNA-associated proteins (for example histones) rather than to nucleic acids. To resolve this issue, the absorption and emission spectra of free compound I before and after addition of dsDNA were recorded. […] Molar extinction coefficient (EC) of free compound I at 391 nm was measured at 10,800 cm^−1 M^−1. […] The exact maximum of fluorescence of compound I/DNA complexes varies insignificantly as a function of the dye/bp ratio and/or base pairs composition of the nucleic acids. […] The quantum yield for compound I (excited at 435 nm) at 5 μM in 50 mM Na-phosphate, pH 7.2, was determined to be 2.7% for free dye and 13.8% in admixture with 50 μM CT DNA. […]

plasmid DNA [2] = assay: fluorescence of free molecules before and after addition of plasmid DNA; assay type: physicochemical; set-up: unit not given beside the values; conditions: free molecule, before addition of plasmid DNA
Procedure: as §1
Spectrometry and fluorimetry were performed using a SpectraMax384 (Molecular Devices) and a Luminescence Spectrometer LS50B (Perkin Elmer). Fluorescence emission of compound I in complex with DNA and RNA was measured in 50 mM Na phosphate buffer, pH 7.2 at room temperature. […] Quantum yield was measured using quinine sulphate as standard as described in (Iupac Commission on Photochemistry, EPA Newsletter of November 1986, 21-29) using FLUOROMAX-3 Spex Spectrofluorometer (HORIBA) and UVIKON XL Spectrophotometer (SECOMAM).
Although compound I also stains mitotic chromosomes (FIG. 1D), theoretically it was possible that it binds specifically to DNA-associated proteins (for example histones) rather than to nucleic acids. To resolve this issue, the absorption and emission spectra of free compound I before and after addition of dsDNA were recorded. […] Molar extinction coefficient (EC) of free compound I at 391 nm was measured at 10,800 cm^−1 M^−1. […]

| SMILES | Absorption maxima free dye (plasmid DNA [1]) | Fluorescence maxima free dye (plasmid DNA [2]) | Absorption maxima DNA bound dye (plasmid DNA [1]; after addition of plasmid DNA) |
| --- | --- | --- | --- |
| CN(C)CCNCc1nc2c3ccccc3cnc2c2ccccc12 [Compound 5, N′-dibenzo[c,h][1,5]naphthyridin-6-yl-methyl-N,N-dimethyl-ethane-1,2-diamine] | 365/ND | 392/ND | – |
| CN(C)CCCNCc1nc2c3ccccc3cnc2c2ccccc12 [Compound 6, N′-dibenzo[c,h][1,5]naphthyridin-6-yl-methyl-N,N-dimethyl-propane-1,3-diamine] | 360 | 385/ND | 365 |
